Inconclusive means that the source gave no clear call. Such entries were picked first, then a sample of the others. A potency beside an inconclusive call is a rough fit, not a confirmed value. Active and inactive are the calls of the source. Calls come from the whole dose curve; as a rule, active = well fitted activation curve with a large enough effect; inconclusive = small, poorly fitted or top-dose-only effect; inactive = no such curve, though single readings can be large or run the other way.
experiment: qHTS for activators of Nrf2/ARE signaling pathway screened against the NCATS CANVASS Library (AID 1347391); conditions: ARE-bla HepG2, beta-lactamase reporter, 16 h; series mostly up to 46.1 µM; note: nearly all actives have a fitted effect of over 60% in size
Source text: Natural products and their derivatives continue to be wellsprings of nascent therapeutic potential. However, many laboratories have limited resources for biological evaluation, leaving their previously isolated or synthesized compounds largely or completely untested. To address this issue, the Canvass library of natural products was assembled (https://tripod.nih.gov/canvass), in collaboration with academic and industry researchers, for quantitative high-throughput screening (qHTS) across a diverse set of cell-based and biochemical assays. The pure (>85% purity by liquid chromatography/mass spectrometry [LC/MS]) Canvass library of 346 natural products were submitted by 45 academic laboratories and companies around the world. We collected pure natural products to circumvent deconvolution and structure elucidation due to time and resource limitations. The library was formatted into 1536-well plates and evaluated in 50 qHTS (in an 11-pnt concentration series) bioassays with broad scope of disease-relevant mechanisms. The resulting data set from 50 different assays was then systematically analyzed to identify overall trends and specific natural products with interesting biological activities. Reported herein are the results of each individual qHTS and their corresponding assay protocol. This assay measures the activation of the Nrf2/ARE signaling pathway in cells using a beta-lactamase reporter gene. The ARE-bla HepG2 assay (Invitrogen) can detect the up-regulation of the antioxidant response element (ARE) signaling pathway and may be useful for the identification of chemicals that induce oxidative stress. National Center for Advancing Translational Sciences (NCATS), Rockville, MD National Institute of Health (NIH), Bethesda, Maryland
Nrf2/ARE-screen assay protocol: 1. In a white-solid bottom 1536-well plate, 5 uL of ARE-bla HepG2 cell suspension was dispensed using a Multidrop Combi (Thermo Fisher Scientific) at a final concentration of 2000 cells / well. 2. The assay plates were incubated for 5 hours at 37C, 5% CO2. 3. 23 nL of compounds (in DMSO; columns 5-48), vehicle control DMSO, and positive control were pin transferred into the assay plates using the Kalypsis pin tool (Wako USA) equipped with a 1536-well pin heads. This yields a final CANVASS compound concentration of 0.4 nM - 95 uM. 4. The assay plates were incubated for 16 hours at 37C, 5% CO2. 5. After compound treatment, 1 uL per well of CCF4 dye detection reagent was added using the BioRAPTR dispenser. 6. The assay plates were incubated for 2 hours at room temperature. 7. Fluorescence readout was obtained using the Envision plate reader (PerkinElmer) using a 405 nm excitation and 460 nm and 530 nm emission filters. 8. To evaluate cell viability, 4 uL of CellTiter-Glo was added to each wells using the BioRAPTR dispenser followed by a 30 min room temperature incubation. 9. Luminescence was measured using the ViewLux plate reader with clear emission filter and 2x binning, 1 sec exposure settings.
Potency is the fitted concentration of half-maximal effect.

SMILES	Potency
O=C1C[C@@H]2OCC=C3CN4CC[C@]56c7ccccc7N1[C@H]5[C@H]2[C@H]3C[C@H]46	inactive
COC1=C(C2=C(OC)C(=O)c3cc4c(c(O)c3C2=O)C(=O)O[C@H](C)C4)C(=O)c2c(cc3c(c2O)C(=O)O[C@H](C)C3)C1=O	inconclusive: 2.48 µM [activator, full curve, poor fit]
COc1ccc(C23Oc4cc(OC)cc(OC)c4[C@](O)([C@H](c4ccccc4)C2C(=O)NCCCCNC(=O)c2ccccc2)[C@@H]3O)cc1 (some centres not stated)	inconclusive: 18.6 µM [activator, partial curve, poor fit]
C=C[C@H]1CN2CCc3c([nH]c4cccc(OC)c34)[C@@H]2C[C@@H]1/C(=C\OC)C(=O)OC	inconclusive: 13.2 µM [activator, partial curve]
C[C@@H]1CC[C@@H](c2ccoc2)N2C[C@@]3(CC[C@@H]12)CS[C@@]1(CC[C@H]2[C@H](C)CC[C@@H](c4ccoc4)N2[C@@H]1O)C3	inconclusive: 2.34 µM [activator, single point]
C=C[C@]12C=CCN3CC[C@@]4(c5ccccc5NC(=O)[C@@H]4C1)[C@@H]32	active: 20.9 µM
CCCC[C@@H](C)/C=C1/CN2CCC[C@H]2[C@@](C)(O)[C@@H]1O	inconclusive: 0.417 µM [activator, partial curve, poor fit]
COc1ccc2c3c([nH]c2c1)C(C)=NCC3	inconclusive: 20.9 µM [activator, partial curve, poor fit]
CO[C@@]12c3c(C)cc(O)c4c(=O)occ(c34)C(=O)[C@@H]1[C@]13COC(=O)c4c(O)cc(C)c(c41)C(=O)[C@H]2[C@@H]3OC(C)=O	inconclusive: 33.1 µM [activator, single point]
C/C=C/[C@@H]1[C@H]2C[C@@H](C)CC[C@@H]2C(C)=C[C@H]1C(=O)c1c(O)c(-c2ccc(O)cc2)c[nH]c1=O	inconclusive: 1.86 µM [activator, full curve]
C=C1[C@@H](C)[C@H]2[C@H](Cc3ccccc3)NC(=O)[C@]23OC(=O)/C=C/[C@H](O)CCC[C@@H](C)C/C=C/[C@H]3[C@@H]1O	inactive
COc1ccc2c(c1)[nH]c1c(C)nccc12	inconclusive: 17.1 µM [activator, full curve]
C/C=C1/CN2CC[C@]34C(=C(C(=O)OC)[C@H]1C[C@H]23)Nc1ccccc14	inconclusive: 23.4 µM [activator, single point]
O[C@H]1C=C[C@@]23CCN(Cc4cc5c(cc42)OCO5)[C@@H]3C1	inactive
CO[C@H]([C@@H](C)[C@H]1O[C@]1(C)C[C@H](C)/C=C/C=C(\C)[C@H]1O[C@@H](CC(=O)O)CC[C@@H]1C)[C@@H](C)O	active: 0.0066 µM
C=CC(C)(C)[C@@]12C[C@H]3C(=O)N/C(=C\c4cnc[nH]4)C(=O)N3[C@@H]1Nc1ccccc12	inconclusive: 20.9 µM [activator, partial curve, poor fit]
C/C=C1/CN2C3CC1C1=CCC(=O)N4c5ccccc5[C@@]3(C[C@@H]2C2=C[C@H]3C5CC6N(CC[C@@]67c6ccccc6N(C2=O)[C@@H]37)C/C5=C/C)[C@H]14 (some centres not stated)	active: 7.41 µM
CC[N@@+]1([O-])C[C@]2(C)CC[C@@H](O)[C@@]34C5C[C@H]6CC[C@@]5(C(C[C@H]23)C41)[C@H](O)[C@@]6(O)CO (some centres not stated)	inactive
CCC(=O)CCCCC[C@@H]1NC(=O)[C@H]2CCCCN2C(=O)[C@H]([C@@H](C)CC)NC(=O)[C@H](Cc2cn(OC)c3ccccc23)NC1=O	inactive
C/C=C1/CN2CC[C@@]34c5ccccc5N(C)[C@@H]3[C@@H]2C[C@@H]1[C@H]4C(=O)OC	inactive
C[C@]12CC(O)C3[C@@H](CCC4C[C@@H](O)CC[C@@]43CO)[C@@]1(O)CCC2C1=CC(=O)OC1 (some centres not stated)	inconclusive: 33.1 µM [activator, partial curve, poor fit]
CC[C@H]1CN2CCc3c([nH]c4cccc(OC)c34)[C@@H]2C[C@@H]1/C(=C\OC)C(=O)OC	inconclusive: 18.6 µM [activator, partial curve, poor fit]
C=CC(C)(C)[C@@]12C[C@H]3C(=O)N/C(=C/c4cnc[nH]4)C(=O)N3[C@@H]1Nc1ccccc12	inconclusive: 18.6 µM [activator, partial curve]
CO[C@H]1[C@H](O[C@H]2CC[C@]3(C=O)[C@H]4CC[C@]5(C)[C@@H](C6=CC(=O)OC6)CC[C@]5(O)[C@@H]4CC[C@]3(O)C2)O[C@H](C)[C@H](O)[C@@H]1OC	inactive
C/C=C(\C)C(=O)O[C@@H]1[C@@H](O)[C@@H]2O[C@H]3[C@H](O[C@@H](CCCCC)CCCCCCC(=O)CCC(=O)OC[C@@H](O2)[C@H]1OC(=O)/C=C/c1ccccc1)O[C@H](C)[C@H](OC(C)=O)[C@@H]3O	inconclusive: 16.6 µM [activator, partial curve]
CC=C1CN(C=O)[C@H]2C[C@@H]1[C@@H](C(=O)OC)[C@@]13CCOC21Nc1ccccc13 (some centres not stated)	inconclusive: 7.41 µM [activator, partial curve]
CC[C@@H]1CN2CCC3(Nc4cccc(OC)c4C3=O)[C@@H]2C[C@@H]1/C(=C\OC)C(=O)OC (some centres not stated)	inactive

3 structures already listed, ordered by formula weight, smallest number first.
SMILES	Potency
COc1ccc2c3c([nH]c2c1)C(C)=NCC3	inconclusive: 20.9 µM [activator, partial curve, poor fit]
C=C1[C@@H](C)[C@H]2[C@H](Cc3ccccc3)NC(=O)[C@]23OC(=O)/C=C/[C@H](O)CCC[C@@H](C)C/C=C/[C@H]3[C@@H]1O	inactive
COc1ccc(C23Oc4cc(OC)cc(OC)c4[C@](O)([C@H](c4ccccc4)C2C(=O)NCCCCNC(=O)c2ccccc2)[C@@H]3O)cc1 (some centres not stated)	inconclusive: 18.6 µM [activator, partial curve, poor fit]

— PubChem BioAssay (NCATS)
